Article PMC12748767
No constants are given. Whether binding was seen depends on the method and setting. In cells and extracts the contact can be indirect. Some entries that bind do so weakly or less than the wild type. One block for each substance: values may come before it.

Protein sequences, listed by entry. Tags and fused reporters are not part of them.
UniProt P60174: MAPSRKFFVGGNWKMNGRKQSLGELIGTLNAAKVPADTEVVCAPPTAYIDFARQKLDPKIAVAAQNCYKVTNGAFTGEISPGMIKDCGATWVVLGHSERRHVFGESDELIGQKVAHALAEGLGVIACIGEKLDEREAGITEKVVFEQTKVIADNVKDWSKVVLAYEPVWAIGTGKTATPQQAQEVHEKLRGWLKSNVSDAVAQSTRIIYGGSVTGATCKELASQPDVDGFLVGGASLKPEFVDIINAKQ
UniProt P10415: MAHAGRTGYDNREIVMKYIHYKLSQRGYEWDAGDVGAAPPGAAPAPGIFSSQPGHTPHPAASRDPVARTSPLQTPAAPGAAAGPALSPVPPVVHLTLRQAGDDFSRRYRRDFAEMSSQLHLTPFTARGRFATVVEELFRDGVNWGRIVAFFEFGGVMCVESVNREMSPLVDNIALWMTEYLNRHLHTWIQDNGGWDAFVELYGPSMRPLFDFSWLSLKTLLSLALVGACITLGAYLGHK

Tests used:
[1] = biological target: Triosephosphate isomerase 1 (TPI1) (human (endogenous in J82 and UMUC3)) (UniProt P60174); test: co-IP; endogenous proteins in J82 and UMUC3 lysates; IP Lysis Buffer with protease inhibitors, specific antibody or control IgG overnight at 4 °C, protein A/G magnetic beads, Western blot; for Beclin-1 with Bcl-2, VPS34, ATG14L and UVRAG the cells were with or without Gem (0.4 μM J82, 0.6 μM UMUC3) and TPI1 knock-down
[2] = biological target: Flag-TPI1 (UniProt P60174); test: co-IP; exogenous co-IP in 293 T cells with HA-Beclin-1, MYC-Bcl2 and Flag-TPI1, each of the latter two with or without the other; HA-Beclin-1 band detected
[3] = biological target: MYC-Bcl2 (UniProt P10415); test: as above
[4] = biological target: Flag-TPI1 (UniProt P60174); test: co-IP; exogenous co-IP in cells transfected with TPI1 and Beclin-1 expression plasmids; cells not given
[5] = biological target: Beclin-1 (human (endogenous in J82 and UMUC3)) (UniProt Q14457); test: co-IP; endogenous proteins in J82 and UMUC3 lysates; IP Lysis Buffer with protease inhibitors, specific antibody or control IgG overnight at 4 °C, protein A/G magnetic beads, Western blot; for Beclin-1 with Bcl-2, VPS34, ATG14L and UVRAG the cells were with or without Gem (0.4 μM J82, 0.6 μM UMUC3) and TPI1 knock-down
[6] = biological target: Flag-TPI1 (UniProt P60174); test: co-IP; co-IP of TPI1 with truncated forms of Beclin-1 (NT 1-172, CT 173-450); cells and tags not stated

- binding [1]: binds
Substance: Beclin-1 (from UniProt Q14457 1-450)

- binding [2]: binds
- binding [3]: binds
- binding [4]: binds
Substance: HA-Beclin-1 (from UniProt Q14457 1-450)

- binding [5]: binds
Substance: Bcl-2 (from UniProt P10415 1-239)

- binding [6]: binds
Substance: Beclin-1-NT (1-172) (from UniProt Q14457 1-172) (domain or fragment)
